{"source": "paper PMC11229371", "about": "“The activity of CobB1 protein deacetylase contributes to nucleoid compaction in Streptomyces venezuelae spores by increasing HupS affinity for DNA” (Nucleic Acids Research, 2024)", "key": {"[1]": {"molecular_target": "T1, His-HupS (nonacetylated, -AcP) (Streptomyces venezuelae) (UniProt F2R5C9)", "T1 sequence": "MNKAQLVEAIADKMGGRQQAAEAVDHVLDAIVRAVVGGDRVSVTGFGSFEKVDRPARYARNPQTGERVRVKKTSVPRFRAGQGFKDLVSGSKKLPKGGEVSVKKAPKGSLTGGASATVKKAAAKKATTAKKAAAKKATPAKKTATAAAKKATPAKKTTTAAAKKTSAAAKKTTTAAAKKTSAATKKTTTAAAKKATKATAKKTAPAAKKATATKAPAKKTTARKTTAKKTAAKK", "assay": "BLI", "conditions": "1 mM Mg2+; BLI: 100 mM Tris-HCl pH 8.0, 200 mM NaCl, 1 mM MgCl2, 0.005% Tween-20, 0.1 mg/ml BSA, 30 C; recombinant protein; residues 1-234; protein details: N-terminal His (pET-28a); label: 5' biotin, immobilized on streptavidin; single-stranded DNA"}, "[2]": {"molecular_target": "T2, His-HupS acetylated in vitro (+AcP) (Streptomyces venezuelae) (UniProt F2R5C9)", "T2 sequence": "T1 sequence", "assay": "BLI", "conditions": "1 mM Mg2+, lysine-acetylated; BLI: 100 mM Tris-HCl pH 8.0, 200 mM NaCl, 1 mM MgCl2, 0.005% Tween-20, 0.1 mg/ml BSA, 30 C; recombinant protein; residues 1-234; protein details: N-terminal His (pET-28a); label: 5' biotin, immobilized on streptavidin; single-stranded DNA"}}, "note": "Construct, isoform or probe ends are uncertain for at least one entry."}
{"sequence": "CTCACGCATGCCGGAGTGTCGCGGCAGTTCGGCATCAGCGGCTGTGCATCGTGTTTCACGTGAAACGTCGCTCACTGCTGCACGGCATCATCAGCCGCGGCCGCGCCGCGGCCGACC [Btn-parS-oligo]", "values": [{"measurement": "Kd", "setting": "[1]", "result": 10.6, "unit": "nM"}, {"measurement": "Kd", "setting": "[2]", "result": 17.6, "unit": "nM"}]}
